Data as given in PubChem BioAssay AID652259 (Drosophila RNAi Screening Center, 2013)

Test: 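Genome-wide hunt for genes that control Wingless pathway activity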 (primary screen)
Cells: Drosophila clone 8 imaginal disc epithelial cells
Reagents: long dsRNA against Drosophila genes
Conditions: pathway stimulated by co-transfected Wingless expression plasmid
Measured: 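Dual luciferase reads per well after Wingless plasmid stimulation: reporter firefly light and Renilla control light; activity is firefly divided by Renilla, a ratio not deposited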
Scale: firefly reporter light: higher = more Wg reporter light, before normalisation; Renilla control light: higher = more transfected or surviving cells
Call rule: 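Strong candidates differ from their plate mean by at least two out of four per-plate statistical tests; weak candidates meet just one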
Calls: active = candidate regulator (raises or lowers reporter); inactive = not a candidate
The deposit covers about 22,000 reagents; shown is an unselected part of those with a known target gene and a result. Over the whole deposit, 233 (1.1%) got an active call. 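Light values are raw, unnormalised plate reads; the ratio scores behind the reporter calls were not deposited.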 No sequences are given here. Not stated in the record: the amount of reagent, the time to read-out, the dose of the treatment.

With mld (molting defective) [DRSC13681], what does the deposit list?
firefly reporter light, replicate 1: 2656; Renilla control light, replicate 1: 1059; Outcome: inactive

With mld (molting defective) [DRSC14622], what was measured?
firefly reporter light, replicate 1: 2515; firefly reporter light, replicate 2: 6304; Renilla control light, replicate 1: 1337; Renilla control light, replicate 2: 1776; Outcome: inactive

With E(z) (Enhancer of zeste) [DRSC11147], how do the results read?
firefly reporter light, replicate 1: 6690; Renilla control light, replicate 1: 2666; Outcome: inactive

With CG14313 [DRSC14792], what was measured?
firefly reporter light, replicate 1: 8864; Renilla control light, replicate 1: 2068; Outcome: inactive

With CG2964 [DRSC00554], what does the deposit list?
firefly reporter light, replicate 1: 3121; firefly reporter light, replicate 2: 8092; Renilla control light, replicate 1: 1170; Renilla control light, replicate 2: 2784; Outcome: inactive

With CG34297 [DRSC12410], how do the results read?
firefly reporter light, replicate 1: 2710; Renilla control light, replicate 1: 1128; Outcome: inactive

With Osi17 (Osiris 17) [DRSC12284], how do the results read?
firefly reporter light, replicate 1: 8598; Renilla control light, replicate 1: 1770; Outcome: inactive

What is on record for CG7634 [DRSC11843]?
firefly reporter light, replicate 1: 16657; Renilla control light, replicate 1: 4352; Outcome: inactive

With grim [DRSC11352], what does the deposit list?
reporter change call, replicate 1: Wg reporter activity raised; firefly reporter light, replicate 1: 9920; Renilla control light, replicate 1: 1081; Outcome: active

Which result is listed for AgmNAT (Agmatine N-acetyltransferase) [DRSC18072]?
firefly reporter light, replicate 1: 12348; Renilla control light, replicate 1: 6362; Outcome: inactive

What is on record for Nil (Nilkantha) [DRSC15953]?
firefly reporter light, replicate 1: 24312; Renilla control light, replicate 1: 21606; Outcome: inactive

Which result is listed for cerv (cervantes) [DRSC19681]?
firefly reporter light, replicate 1: 15107; Renilla control light, replicate 1: 7859; Outcome: inactive

2 entries from above, sorted by “firefly reporter light, replicate 1”, lowest first.
grim [DRSC11352] — reporter change call, replicate 1: Wg reporter activity raised; firefly reporter light, replicate 1: 9920; Renilla control light, replicate 1: 1081; Outcome: active
AgmNAT (Agmatine N-acetyltransferase) [DRSC18072] — firefly reporter light, replicate 1: 12348; Renilla control light, replicate 1: 6362; Outcome: inactive
